What was measured:
[1] = C17H12O6 content of treated groundnuts; settings: groundnut
Description: The data presented in Table-3 illustrates the efficiency of the system of the present disclosure in detoxifying contaminated groundnuts.
Three sets of C17H12O6 contaminated 3 kg's, 60 kg's and 60 kg's of groundnuts were separately pre-conditioned and decontaminated in the system. In this case, groundnuts were pre-conditioned and exposed with trioxygen gas for up to 5 minutes. The products were put under pressure of trioxygen gas for a span of 9 minutes to 26 minutes. Based on the commodity characteristics, the exposure of trioxygen gas was repeated 15 times. Trioxygen gas having capacity 500 g/h was generated by the trioxygen generator of the system (on site) with a constant oxygen flow rate and delivered to the decontamination chamber through silicon tube. All 3 sets of products were heated and then analyzed for the presence of the contaminant and the results obtained are summarized in Table-3.

[2] = C17H12O6 content of treated corn
Description: The data presented in Table-4 illustrates the efficiency of the system of the present disclosure in detoxifying pre-conditioned contaminated corn.
Three sets of C17H12O6 contaminated 70 kg's of corn were separately decontaminated in the system of the present disclosure. In this case, corn samples were pre-conditioned with a pre-conditioning liquid and exposed to trioxygen gas for up to 5 minutes. The products were put under pressure of trioxygen gas for a span of 9 minutes to 26 minutes. Based on the commodity characteristics, the exposure of trioxygen gas was repeated 20 times. Trioxygen gas having capacity 500 g/h was generated by the trioxygen generator of the system (on site) with a constant oxygen flow rate and delivered to the decontamination chamber through silicon tube. All 3 sets of products were air dried and then analyzed for the presence of the contaminant and the results obtained are summarized in Table-4

[3] = C17H12O6 content of treated whole red chilli; settings: whole red chilli 12 kg's, before treatment 22.54 ppb
Description: This experiment illustrates the treatment of aerobic micro-organisms, yeast, mould, coliform, E. coli, Salmonella and fat soluble metabolites contaminated whole red chilli.
The data presented in Table-2 illustrate the efficacy of the present disclosure in detoxifying contaminated whole red chillies. […].
The red chillies were exposed with Trioxygen for 2 minutes. The products were put under pressure of trioxygen gas for a span of 9 minutes to 26 minutes. Based on the commodity characteristics, the exposure of trioxygen gas was repeated 10 times. Trioxygen gas having a capacity 500 g/h was generated by the trioxygen generator (on site) of the system with a constant oxygen flow rate and delivered to the decontamination chamber through silicon tube. The whole red chillies were then treated to heated air.

O=[O+][O-] [Trioxygen]
C17H12O6, Results After Treatment ([1]; Sr. No. 1, 3 kg's, before treatment 101.84 ppb): Not detected | C17H12O6, Results After Treatment ([1]; Sr. No. 2, 60 kg's, before treatment 44.57 ppb): 2.95 ppb | C17H12O6, Results After Treatment ([1]; Sr. No. 3, 60 kg's, before treatment 377.69 ppb): 137.53 ppb | C17H12O6, Results After Treatment ([2]; Sr. No. 1, 70 kg's, before treatment 54.20 ppb): Not detected | C17H12O6, Results After Treatment ([2]; Sr. No. 2, 70 kg's, before treatment 161.48 ppb): 23.56 ppb | C17H12O6, Results After Treatment ([2]; Sr. No. 3, 70 kg's, before treatment 11.03 ppb): Not detected | C17H12O6, Results After Treatment ([3]; Trial 2): 6.10 ppb | C17H12O6, Results After Treatment ([3]; Trial 3): 5.31 ppb
